Data taken from PubChem BioAssay AID504648 (National Center for Advancing Translational Sciences (NCATS), 2011).
Among all 390,000 compounds or so, about 610 (0.16%) were called active. The inconclusive results got no clear call from the source; some entries with a clear call stand among them for comparison. Calls come from the whole dose curve; as a rule, active = well fitted inhibition curve with a large enough effect; inconclusive = small, poorly fitted or top-dose-only effect, or effect the other way, or another doubt; inactive = no such curve, though single readings can be large or run the other way. Potencies beside an inconclusive call are fits to weak or partial responses and may not hold up.
Potency is the fitted concentration of half-maximal effect.

Assay: Nrf2 qHTS screen for inhibitors: counterscreen for cytotoxicity
Settings: A549 ARE-Fluc cells, CellTiter-Fluor viability, 18-24 h; series mostly up to 46 µM
In short: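 A549 ARE-Fluc cells in 5% FBS OPTI-MEM, 5000 cells/well, rested 2 h then exposed to compounds in concentration-response for 18-24 h at 37 °C. Viability by CellTiter-Fluor fluorescence (Ex 405/Em 525) after 30 min; luciferase luminescence (BugLite, 15 min, RT) read afterwards.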
With `Cc1ccc(NC(=O)c2c(C)nc3sc(C(=O)Nc4ccc(F)cc4)c(N)c3c2-c2ccc(Cl)cc2)c(C)c1` the Potency was “inactive”. For `O=C1NC(=S)S/C1=C\c1ccc(SCc2ccco2)o1`, the Potency was inconclusive: 16.4 µM [falling, single point]. For `Cc1cc(NC(=O)/C=C/c2cccc(Cl)c2)n(-c2nc3ccccc3[nH]2)n1`, the Potency was inconclusive: 29.1 µM [falling, partial curve, poor fit]. For `COc1cccc(C2Nc3ccc4ccccc4c3C3=C2C(=O)CCC3)c1O` (stereo not given), the Potency was inconclusive: 29.1 µM [falling, single point]. For `COc1ccc(CC(=O)Nc2cc(Cl)ccc2N2CCCC2)cc1`, the Potency was “inactive”. In the case of `CN(C)c1ccc(CNC(=O)C2CCCN(S(=O)(=O)c3ccc4c(c3)CCCC(=O)N4)C2)cc1` (stereo not given), the Potency is reported as “inactive”. In the case of `CCOC(=O)C1=C(CCl)NC(=O)NC1c1ccc2c(c1)OCO2` (stereo not given), the Potency is reported as “inactive”. With `CC(C)Cn1c(-c2cccc(S(=O)(=O)N3CCOCC3)c2)n[nH]c1=S` the Potency was “inactive”. In the case of `Cc1nc(N/N=C/c2ccccn2)sc1C`, the Potency is reported as inconclusive: 29.1 µM [falling, single point]. For `COc1cc([N+](=O)[O-])ccc1NC(=O)C[n+]1ccccc1`, the Potency was “inactive”. In the case of `CCN(CC)CCNc1cc(C)nc2c1C(=O)C(=O)C=C2N1CCCCC1`, the Potency is reported as inconclusive: 25.9 µM [falling, partial curve]. With `Cc1ccccc1NC(=O)c1nc(S(C)(=O)=O)ncc1N(Cc1ccco1)Cc1sccc1C` the Potency was “inactive”. With `O=C1OCCC1Sc1nnc(-c2ccc(F)cc2)n1Cc1ccccc1` (stereo not given) the Potency was “inactive”. With `Cc1ccc2c(c1)[C@H]1[C@H](CO2)[C@H](c2ccccc2)[C@]2(C)C(=O)N(C)CC(=O)N12` the Potency was “inactive”. With `CC1CCN(c2oc(Cc3cccc4ccccc34)nc2C#N)CC1` the Potency was “inactive”. With `Cc1ccc(NC(=O)Cn2nnc(C(=O)NCCc3ccccc3)c2N)cc1` the Potency was “inactive”. For `Cc1ccc(NC(=S)C2=C(O)c3sccc3N(C)S2(=O)=O)cc1`, the Potency was inconclusive: 18.4 µM [falling, partial curve, poor fit]. With `CC(=O)Nc1ccc(NC(=O)/C=C/c2ccc(Cl)cc2)cc1` the Potency was “inactive”. With `COc1cc(/C=C2/C(=O)NN(c3ccc(Cl)c(Cl)c3)C2=O)cc([N+](=O)[O-])c1O` the Potency was inconclusive: 14.6 µM [falling, partial curve, poor fit]. For `COc1ccc(Nc2nnc(-c3ccc(C)c(S(=O)(=O)NCc4nc5ccccc5[nH]4)c3)c3ccccc23)cc1`, the Potency was inconclusive: 29.1 µM [falling, single point]. In the case of `COc1ccc(C(=O)Nc2ccc3c4c(cccc24)CC3)cc1`, the Potency is reported as “inactive”. For `O=C1CSC(c2nn(-c3ccccc3)cc2-c2cc3ccccc3oc2=O)N1Cc1ccco1` (stereo not given), the Potency was “inactive”. With `Cc1cc(NC(=O)c2cc([N+](=O)[O-])cc([N+](=O)[O-])c2)n(-c2ccccc2)n1` the Potency was “inactive”. In the case of `Cc1cc2ccccc2n1CCNC(=O)C1CCCC1`, the Potency is reported as “inactive”. For `O=C(COCC(=O)Nc1cccc(C(F)(F)F)c1)Nc1cccc(C(F)(F)F)c1`, the Potency was inconclusive: 18.4 µM [falling, single point]. For `COc1ccc(-n2c(CCc3ccccc3)nnc2SCC(=O)c2ccccc2)cc1`, the Potency was inconclusive: 29.1 µM [falling, single point]. With `Cc1ccccc1C(=O)N1CCN(c2ncnc3c2cnn3-c2ccccc2)CC1` the Potency was inconclusive: 11.6 µM [falling, single point]. For `CCOC(=O)c1ccc(NC(=S)N(CCCN2CCCC(C)C2)Cc2cccs2)cc1` (stereo not given), the Potency was inconclusive: 18.4 µM [falling, single point]. In the case of `O=C(O)CN1C(=O)/C(=C/c2ccsc2)SC1=S`, the Potency is reported as inconclusive: 4.61 µM [falling, partial curve, poor fit]. With `Cn1c(=O)c(Nc2ccc(O)cc2)c2c3c(cccc31)C(=O)c1ccccc1-2` the Potency was inconclusive: 20.6 µM [falling, single point]. For `Cc1ccc(-c2csc(=S)n2CC(=O)OCC(=O)NC(C)C(C)C)cc1` (stereo not given), the Potency was “inactive”. With `Cc1cccc(NC(=O)NNC(=O)c2cc(-c3ccccc3Cl)nc3ccccc23)c1` the Potency was inconclusive: 13 µM [falling, partial curve, poor fit]. With `COc1ccc(C(=O)O)cc1S(=O)(=O)Nc1ccc(Oc2ccccc2)cc1` the Potency was “inactive”. In the case of `CCOC(=O)N1CCc2cc(OC)c(OC)c3c2c1cc1cc(OC)c(OC)cc13`, the Potency is reported as “inactive”. For `COc1ccccc1COn1c(=O)c(-c2ccco2)[n+]([O-])c2ccccc21`, the Potency was “inactive”. For `CC1Cc2cc(S(=O)(=O)NCc3ccccc3)ccc2N1C(=O)C1CCC1` (stereo not given), the Potency was “inactive”. With `O=C1C2CCCCN2C(=O)N1CCN1CCN(c2ccc([N+](=O)[O-])cc2)CC1` (stereo not given) the Potency was inconclusive: 23.1 µM [falling, partial curve, poor fit]. In the case of `Cc1ccc(-c2nnn(CC(=O)N(c3ccccc3)C(C(=O)NC(C)(C)C)c3cccs3)n2)o1` (stereo not given), the Potency is reported as inconclusive: 32.6 µM [falling, partial curve, poor fit]. With `CC(C(=O)N1CCN(c2ccccc2)CC1)N1C(=O)C2CC=CCC2C1=O` (stereo not given) the Potency was inconclusive: 20.6 µM [activator, partial curve, poor fit]. With `Cc1c(C(=O)O)cccc1-c1ccc(/C=N/Nc2ccc(Br)cc2)o1` the Potency was “inactive”. In the case of `Cc1ccc2nc3c(c(Nc4ccc(C)c(C)c4)c2c1)CCC3`, the Potency is reported as inconclusive: 20.6 µM [falling, single point]. In the case of `O=[N+]([O-])c1ccc(-[n+]2ccc3ccccc3c2)c([N+](=O)[O-])c1`, the Potency is reported as inconclusive: 29.1 µM [falling, single point]. In the case of `N=c1c2c(-c3ccccc3)c(-c3ccccc3)n(Cc3ccccc3)c2ncn1CCO`, the Potency is reported as inconclusive: 8.2 µM [falling, partial curve, poor fit]. With `Cc1ccc(-n2c(SCC(=O)OC(C)C)nnc2-c2ccccn2)cc1` the Potency was inconclusive: 0.651 µM [activator, full curve, poor fit]. For `COc1cccc(C2c3c(ncn(-c4ccccc4OC)c3=N)Oc3ccc4ccccc4c32)c1` (stereo not given), the Potency was inconclusive: 29.1 µM [falling, single point].
